Assay: pH of 0.005 molar solution in 15% methanol/85% water
Type: physicochemical
Description: TABLE I also includes vapor pressure (VP) and pKa values for the various backside stabilizers.

In the case of `C1CN=C2CCCN2C1` [AB-4, 1,5-diazabicyclo[4.3.0]non-5-ene], the pH is reported as 11.7.
